Reference: ChEMBL document CHEMBL1157379, “Transcriptional response of Candida parapsilosis following exposure to farnesol” (2007)
This continues a long series; more values of the same kind are listed elsewhere.

Key:
Type in all cases: functional
[1] = test system: Candida parapsilosis; assay: Decrease in CGD gene ortholog accession number orf19.1881 expression in Candida parapsilosis CLIB214 at 50 uM after 2 hrs by microarray based transcriptional profiling relative to control
[2] = test system: Candida parapsilosis; assay: Decrease in CGD gene ortholog accession number orf19.6134 expression in Candida parapsilosis CLIB214 at 50 uM after 2 hrs by microarray based transcriptional profiling relative to control
[3] = test system: Candida parapsilosis; assay: Decrease in RIM21 gene expression in Candida parapsilosis CLIB214 at 50 uM after 2 hrs by microarray based transcriptional profiling relative to control
[4] = test system: Candida parapsilosis; assay: Decrease in HGT5 gene expression in Candida parapsilosis CLIB214 at 50 uM after 2 hrs by microarray based transcriptional profiling relative to control
[5] = test system: Candida parapsilosis; assay: Increase in CGD gene ortholog accession number orf19.1392 expression in Candida parapsilosis CLIB214 at 50 uM after 2 hrs by microarray based transcriptional profiling relative to control
[6] = test system: Candida parapsilosis; assay: Increase in CGD gene ortholog accession number orf19.2465 expression in Candida parapsilosis CLIB214 at 50 uM after 2 hrs by microarray based transcriptional profiling relative to control
[7] = test system: Candida parapsilosis; assay: Increase in CGD gene ortholog accession number orf19.2527 expression in Candida parapsilosis CLIB214 at 50 uM after 2 hrs by microarray based transcriptional profiling relative to control
[8] = test system: Candida parapsilosis; assay: Decrease in CGD gene ortholog accession number orf19.1647 expression in Candida parapsilosis CLIB214 at 50 uM after 2 hrs by microarray based transcriptional profiling relative to control
[9] = test system: Candida parapsilosis; assay: Increase in SCH9 gene expression in Candida parapsilosis CLIB214 at 50 uM after 2 hrs by microarray based transcriptional profiling relative to control
[10] = test system: Candida parapsilosis; assay: Reduction in CHS5 gene expression in Candida parapsilosis CLIB214 by RT-PCR
[11] = test system: Candida parapsilosis; assay: Decrease in CGD gene ortholog accession number orf19.4960 expression in Candida parapsilosis CLIB214 at 50 uM after 2 hrs by microarray based transcriptional profiling relative to control
[12] = test system: Candida parapsilosis; assay: Decrease in INT1 gene expression in Candida parapsilosis CLIB214 at 50 uM after 2 hrs by microarray based transcriptional profiling relative to control
[13] = test system: Candida parapsilosis; assay: Decrease in CGD gene ortholog accession number orf19.1050 expression in Candida parapsilosis CLIB214 at 50 uM after 2 hrs by microarray based transcriptional profiling relative to control
[14] = test system: Candida parapsilosis; assay: Increase in CGD gene ortholog accession number orf19.1335 expression in Candida parapsilosis CLIB214 at 50 uM after 2 hrs by microarray based transcriptional profiling relative to control
[15] = test system: Candida parapsilosis; assay: Decrease in CGD gene ortholog accession number orf19.5180 expression in Candida parapsilosis CLIB214 at 50 uM after 2 hrs by microarray based transcriptional profiling relative to control
[16] = test system: Candida parapsilosis; assay: Increase in ARD gene expression in Candida parapsilosis CLIB214 at 50 uM after 2 hrs by microarray based transcriptional profiling relative to control
[17] = test system: Candida parapsilosis; assay: Decrease in CGD gene ortholog accession number orf19.5129 expression in Candida parapsilosis CLIB214 at 50 uM after 2 hrs by microarray based transcriptional profiling relative to control
[18] = test system: Candida parapsilosis; assay: Increase in CGD gene ortholog accession number orf19.2484 expression in Candida parapsilosis CLIB214 at 50 uM after 2 hrs by microarray based transcriptional profiling relative to control
[19] = test system: Candida parapsilosis; assay: Increase in CGD gene ortholog accession number orf19.6524 expression in Candida parapsilosis CLIB214 at 50 uM after 2 hrs by microarray based transcriptional profiling relative to control
[20] = test system: Candida parapsilosis; assay: Increase in CGD gene ortholog accession number orf19.5897 expression in Candida parapsilosis CLIB214 at 50 uM after 2 hrs by microarray based transcriptional profiling relative to control
[21] = test system: Candida parapsilosis; assay: Increase in VPS4 gene expression in Candida parapsilosis CLIB214 at 50 uM after 2 hrs by microarray based transcriptional profiling relative to control
[22] = test system: Candida parapsilosis; assay: Decrease in PIN4 gene expression in Candida parapsilosis CLIB214 at 50 uM after 2 hrs by microarray based transcriptional profiling relative to control
[23] = test system: Candida parapsilosis; assay: Increase in CGD gene ortholog accession number orf19.5356 expression in Candida parapsilosis CLIB214 at 50 uM after 2 hrs by microarray based transcriptional profiling relative to control
[24] = test system: Candida parapsilosis; assay: Increase in GLT1 gene expression in Candida parapsilosis CLIB214 at 50 uM after 2 hrs by microarray based transcriptional profiling relative to control
[25] = test system: Candida parapsilosis; assay: Decrease in CGD gene ortholog accession number orf19.278 expression in Candida parapsilosis CLIB214 at 50 uM after 2 hrs by microarray based transcriptional profiling relative to control
[26] = test system: Candida parapsilosis; assay: Increase in GCD1 gene expression in Candida parapsilosis CLIB214 at 50 uM after 2 hrs by microarray based transcriptional profiling relative to control
[27] = test system: Candida parapsilosis; assay: Decrease in CGD gene ortholog accession number orf19.3356 expression in Candida parapsilosis CLIB214 at 50 uM after 2 hrs by microarray based transcriptional profiling relative to control
[28] = test system: Candida parapsilosis; assay: Decrease in CGD gene ortholog accession number orf19.7589 expression in Candida parapsilosis CLIB214 at 50 uM after 2 hrs by microarray based transcriptional profiling relative to control
[29] = test system: Candida parapsilosis; assay: Decrease in CGD gene ortholog accession number orf19.7521 expression in Candida parapsilosis CLIB214 at 50 uM after 2 hrs by microarray based transcriptional profiling relative to control
[30] = test system: Candida parapsilosis; assay: Increase in SPL1 gene expression in Candida parapsilosis CLIB214 at 50 uM after 2 hrs by microarray based transcriptional profiling relative to control
[31] = test system: Candida parapsilosis; assay: Decrease in ARR3 gene expression in Candida parapsilosis CLIB214 at 50 uM after 2 hrs by microarray based transcriptional profiling relative to control
[32] = test system: Candida parapsilosis; assay: Increase in CGD gene ortholog accession number orf19.7237 expression in Candida parapsilosis CLIB214 at 50 uM after 2 hrs by microarray based transcriptional profiling relative to control
[33] = test system: Candida parapsilosis; assay: Increase in CGD gene ortholog accession number orf19.4739 expression in Candida parapsilosis CLIB214 at 50 uM after 2 hrs by microarray based transcriptional profiling relative to control
[34] = test system: Candida parapsilosis; assay: Increase in CGD gene ortholog accession number orf19.4801 expression in Candida parapsilosis CLIB214 at 50 uM after 2 hrs by microarray based transcriptional profiling relative to control
[35] = test system: Candida parapsilosis; assay: Decrease in GenBank accession number XP_451524. 1 expression in Candida parapsilosis CLIB214 at 50 uM after 2 hrs by microarray based transcriptional profiling relative to control
[36] = test system: Candida parapsilosis; assay: Increase in CGD gene ortholog accession number orf19.5661 expression in Candida parapsilosis CLIB214 at 50 uM after 2 hrs by microarray based transcriptional profiling relative to control
[37] = test system: Candida parapsilosis; assay: Decrease in PCK1 gene expression in Candida parapsilosis CLIB214 at 50 uM after 2 hrs by microarray based transcriptional profiling relative to control

## CC(C)=CCC/C(C)=C/CC/C(C)=C/CO [FARNESOL]
[1]
  fold change (FC): 1.57
[2]
  fold change (FC): 2.15
[3]
  fold change (FC): 1.67
[4]
  fold change (FC): 1.99
[5]
  fold change (FC): 1.5
[6]
  fold change (FC): 1.56
[7]
  fold change (FC): 1.52
[8]
  fold change (FC): 1.66
[9]
  fold change (FC): 1.62
[10]
  fold change (FC): 1.52
[11]
  fold change (FC): 1.64
[12]
  fold change (FC): 1.77
[13]
  fold change (FC): 1.84
[14]
  fold change (FC): 1.75
[15]
  fold change (FC): 1.67
[16]
  fold change (FC): 1.82
[17]
  fold change (FC): 2.19
[18]
  fold change (FC): 1.55
[19]
  fold change (FC): 1.78
[20]
  fold change (FC): 1.61
[21]
  fold change (FC): 1.58
[22]
  fold change (FC): 1.66
[23]
  fold change (FC): 2.75
[24]
  fold change (FC): 2.23
[25]
  fold change (FC): 1.86
[26]
  fold change (FC): 1.73
[27]
  fold change (FC): 2.08
[28]
  fold change (FC): 1.77
[29]
  fold change (FC): 1.76
[30]
  fold change (FC): 1.76
[31]
  fold change (FC): 1.62
[32]
  fold change (FC): 1.57
[33]
  fold change (FC): 1.73
[34]
  fold change (FC): 1.55
[35]
  fold change (FC): 2.08
[36]
  fold change (FC): 1.71
[37]
  fold change (FC): 3.36
